PubChem BioAssay AID1259308, NCATS – 2017

Aim: 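Genes whose loss raises luciferase production in HEK293 cells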 (primary screen)
Cells: human HEK293 embryonic kidney cells stably expressing firefly luciferase (HEK-CMV-Luc2-Hygro)
Reagents: single siRNA against human genes, 0.8 pmol siRNA per well
Duration: 72 h
Measurement: 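Reporter luminescence and viable-cell signal on separate replicate plates, given as percent of non-targeting control and median/MAD z-scores, plus per-cell luciferase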
Reading the numbers: total luciferase, z-score and total luciferase, % of control: higher = more reporter protein produced
Hit rule: 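An siRNA counts as active if its total luciferase robust z-score exceeds 3; genes with two or more such siRNAs out of three were retested with fresh siRNAs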
Meaning of the calls: active = raised luciferase; inactive = no rise
Shown is one part, drawn at random, of about 59,000 deposited reagents. About 1,510 of all reagents (2.6%) were called active. 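Calls use total luciferase alone and ignore viability, so some active siRNAs may act by altering cell number.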 Entries without a mark were called inactive. Reagents against one gene are numbered here. Further read-outs or replicates are left out here. Reagent sequences are not shown.

Against AAMP #1 the deposit lists total luciferase, z-score -1.12; total luciferase, % of control 59.6.
For AAMP #2, the entry reads total luciferase, z-score -0.843; total luciferase, % of control 65.1.
AAMP #3 showed total luciferase, z-score -0.416; total luciferase, % of control 73.6.
ZBED4 #1 scored total luciferase, z-score 0.12; total luciferase, % of control 84.3.
For ZBED4 #2, the values are total luciferase, z-score 1.4; total luciferase, % of control 110.
Against ZBED4 #3 the deposit lists total luciferase, z-score 0.31; total luciferase, % of control 88.
Knock-down of ARID2 #1 resulted in: total luciferase, z-score 0.0837; total luciferase, % of control 83.6.
After knock-down of ARID2 #2, the record shows total luciferase, z-score -0.503; total luciferase, % of control 71.9.
After knock-down of ARID2 #3 the results were total luciferase, z-score -0.41; total luciferase, % of control 73.7.
With knock-down of CASP14 #1, the record shows total luciferase, z-score -0.199; total luciferase, % of control 77.9.
With knock-down of CASP14 #2 the results were total luciferase, z-score -1.01; total luciferase, % of control 61.8.
Against CASP14 #3 the deposit lists total luciferase, z-score 5.24 (active); total luciferase, % of control 186.
After knock-down of RRP1 #1 the results were total luciferase, z-score -1.91; total luciferase, % of control 43.8.
After knock-down of RRP1 #2, the screen gave total luciferase, z-score -1.5; total luciferase, % of control 52.
For RRP1 #3, the values are total luciferase, z-score 0.152; total luciferase, % of control 84.9.
Against HSCB #1, the entry reads total luciferase, z-score -1.62; total luciferase, % of control 49.7.
HSCB #2 scored total luciferase, z-score -1.59; total luciferase, % of control 50.4.
HSCB #3 gave total luciferase, z-score -0.236; total luciferase, % of control 77.2.
Knock-down of RPS28P4 #1 came out at: total luciferase, z-score -2.05; total luciferase, % of control 41.1.
RPS28P4 #2 scored total luciferase, z-score -2.05; total luciferase, % of control 41.1.
After knock-down of RPS28P4 #3, the record shows total luciferase, z-score -3.07; total luciferase, % of control 20.8.

A stretch from the list above:
AAMP #2: total luciferase, z-score = -0.843; total luciferase, % of control = 65.1
AAMP #3: total luciferase, z-score = -0.416; total luciferase, % of control = 73.6
ZBED4 #1: total luciferase, z-score = 0.12; total luciferase, % of control = 84.3
ZBED4 #2: total luciferase, z-score = 1.4; total luciferase, % of control = 110

The results go on:
After knock-down of ZNF496 #1, the screen gave total luciferase, z-score -1.34; total luciferase, % of control 55.2.
With knock-down of ZNF496 #2 the results were total luciferase, z-score 0.681; total luciferase, % of control 95.4.
For ZNF496 #3, the entry reads total luciferase, z-score -0.274; total luciferase, % of control 76.4.
After knock-down of ATAD2B #1 the results were total luciferase, z-score -0.972; total luciferase, % of control 62.6.
For ATAD2B #2, the entry reads total luciferase, z-score -0.159; total luciferase, % of control 78.7.
For ATAD2B #3 the deposit lists total luciferase, z-score 0.976; total luciferase, % of control 101.
MTUS1 #1 gave total luciferase, z-score 0.424; total luciferase, % of control 90.3.
With knock-down of MTUS1 #2, the screen gave total luciferase, z-score 0.54; total luciferase, % of control 92.6.
Against MTUS1 #3, the values are total luciferase, z-score -0.524; total luciferase, % of control 71.5.
After knock-down of PIK3R5 #1, the record shows total luciferase, z-score 2.64; total luciferase, % of control 134.
Depletion of PIK3R5 #2 came out at: total luciferase, z-score -0.624; total luciferase, % of control 69.5.
After knock-down of PIK3R5 #3 the results were total luciferase, z-score -1.08; total luciferase, % of control 60.5.
